Experimental data taken from paper PMC6683420 (BMC Molecular and Cell Biology, 2019).
Results are given in words; binding and its absence hold for the method and conditions named. Some entries that bind do so weakly or less than the wild type.

The chains behind the UniProt entries cited, without tags or fusion partners. Residues count along the entry.
UniProt P25942, residues 21-193: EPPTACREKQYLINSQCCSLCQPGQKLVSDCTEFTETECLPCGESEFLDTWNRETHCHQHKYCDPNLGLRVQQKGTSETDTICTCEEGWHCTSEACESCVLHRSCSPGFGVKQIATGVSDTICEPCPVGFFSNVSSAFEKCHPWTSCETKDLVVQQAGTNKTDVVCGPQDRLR

Biological target: [CD40(h)(21–193)]-Tev-His6, human CD40 extracellular domain (human) (UniProt P25942)
Assay: crystal structure; ABBV-323 Fab and CD40 mixed at 1.05:1 molar ratio, complex purified by SEC; crystals by vapor diffusion at 23 °C, 2 M ammonium sulfate, 0.1 M phosphate-citrate pH 4.2; 2 complexes in the asymmetric unit; CD40 dimer generated by crystallographic symmetry; both purified

binding: binds
Substance: [CD40(h)(21–193)]-Tev-His6, human CD40 extracellular domain (from UniProt P25942 21-193) (domain or fragment; other documents disagree on this pair)
